Results on 37 molecules are retold here after the supplement of paper PMC10735217.

This is one part of the list. This data set is noisy: repeats of one test often differ as much as different tests do.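 Human kidney-derived cells stably carry a construct in which eight TEAD-binding elements drive luciferase, measured by luminescence in a drug-repurposing library screen. A hit is any compound whose signal exceeds the plate mean by more than five robust Z scores.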

In this test the test system is HEK293A TEAD-LUC reporter. Description: TEAD-luciferase reporter activity (YAP activation), robust Z score vs plate; higher = stronger YAP/TEAD activation. Particulars: 24 h. For orientation: A reporter such as luciferase makes a cellular process visible.

With `CC(=O)N1Cc2ccccc2CC12CCCN(C(=O)CCCN)C2` (centres undefined), the TEAD-luciferase reporter activity was inactive: -0.484 (compound concentration: 200 nM) and active: 99 (compound concentration: 10 uM).

With `CCN(CC)CCCCC1CCN(CC(=O)N2c3ccccc3C(=O)Nc3cccnc32)CC1`, the TEAD-luciferase reporter activity is, setting by setting: (compound concentration: 200 nM) inactive: 0.892; (compound concentration: 2 uM) inactive: -1.73; (compound concentration: 10 uM) inactive: 2.06.

As to `CCCCOc1ccc(C(=O)OC2CC(C)N(C)CC2C)cc1` (centres undefined), the TEAD-luciferase reporter activity was inactive: -0.332 (compound concentration: 200 nM), inactive: -2.29 (compound concentration: 2 uM) and inactive: -0.869 (compound concentration: 10 uM).

On to `CC1(C)C2CCC1(C)C(Cl)C2` (centres undefined), for which the TEAD-luciferase reporter activity is inactive: -0.261 (compound concentration: 200 nM), inactive: -0.538 (compound concentration: 2 uM) and inactive: -1.42 (compound concentration: 10 uM).

Take `Cn1cc(C(F)(F)F)nc1-c1ccc(OCC(O)CNCCOc2ccc(O)c(C(N)=O)c2)cc1` (centres undefined): the TEAD-luciferase reporter activity is inactive: -0.0975 (compound concentration: 200 nM), inactive: -1.85 (compound concentration: 2 uM) and inactive: 2.23 (compound concentration: 10 uM).

Turning to `Cc1coc2c1C(=O)C(=O)c1c-2ccc2c1CCCC2(C)C` [Tashi IIA], for the setting “compound concentration: 200 nM”, the TEAD-luciferase reporter activity was inactive: -2.11.

For the molecule `Cc1coc2c1C(=O)C(=O)c1c-2ccc2c1CCCC2(C)C` [Tashi    IIA], for the setting “compound concentration: 2 uM”, the TEAD-luciferase reporter activity was inactive: -0.701.

As to `Cc1coc2c1C(=O)C(=O)c1c-2ccc2c1CCCC2(C)C` [Tashi   IIA], the TEAD-luciferase reporter activity (compound concentration: 10 uM) is inactive: 2.72.

For the molecule `CCN(CC)CCNC1c2ccccc2OCc2ncccc21` (centres undefined), the TEAD-luciferase reporter activity reads like this: (compound concentration: 200 nM) inactive: -0.237; (compound concentration: 2 uM) inactive: 1.05; (compound concentration: 10 uM) inactive: -1.76.

Take `CCCCOc1cc(C(=O)NCCN(CC)CC)c2ccccc2n1` [Dibucaine]: the TEAD-luciferase reporter activity reads like this: (compound concentration: 200 nM) active: 9.89; (compound concentration: 2 uM) inactive: 4.28; (compound concentration: 10 uM) inactive: -0.0235.

Consider `CC(C)[C@H](O)C(=O)N[C@@H](C)C(=O)N[C@@H]1C(=O)N(C)CCc2ccccc21` [Semagacestat], for which, under “compound concentration: 2 uM”, the TEAD-luciferase reporter activity was inactive: -0.419.

For `CC(C)[C@H](O)C(=O)N[C@@H](C)C(=O)N[C@@H]1C(=O)N(C)CCc2ccccc21`, the TEAD-luciferase reporter activity was inactive: 0.373 (compound concentration: 200 nM) and inactive: 0.509 (compound concentration: 10 uM).

As to `CO/N=C(/C(=O)NC1C(=O)N2C(C(=O)O)=CCSC12)c1csc(NC(=O)C(C)N)n1` (centres undefined), the TEAD-luciferase reporter activity was inactive: 1 (compound concentration: 200 nM), inactive: -1.04 (compound concentration: 2 uM) and active: 10.6 (compound concentration: 10 uM).

As to `C=C[C@@H]1C[C@]1(NC(=O)[C@@H]1C[C@@H]2CN1C(=O)[C@H](C(C)(C)C)NC(=O)O[C@@H]1C[C@H]1CCCCCc1nc3ccc(OC)cc3nc1O2)C(=O)NS(=O)(=O)C1CC1`, the TEAD-luciferase reporter activity reads like this: (compound concentration: 200 nM) inactive: -1.35; (compound concentration: 2 uM) inactive: 1.66; (compound concentration: 10 uM) inactive: 3.32.

As for `Cc1ncc(-c2ccnc(Nc3ccc(S(C)(=O)=O)cc3)n2)n1C(C)C`, the TEAD-luciferase reporter activity runs as follows: (compound concentration: 200 nM) inactive: -0.638; (compound concentration: 2 uM) inactive: -3.05; (compound concentration: 10 uM) inactive: -0.289.

On to `CCOCn1cnc2c1c(=O)n(CCCCC(C)(C)O)c(=O)n2C` [Torbafylline], for which the TEAD-luciferase reporter activity reads like this: (compound concentration: 200 nM) inactive: -1.01; (compound concentration: 2 uM) inactive: -1.89; (compound concentration: 10 uM) inactive: 4.01.

For `O=C(Nc1ccc(F)cc1)NC1C(=O)N(CC(=O)N2CCCC2)c2ccccc2N(C2CCCCC2)C1=O` (centres undefined), the TEAD-luciferase reporter activity by setting is: (compound concentration: 200 nM) inactive: -1.19; (compound concentration: 2 uM) inactive: 0.159; (compound concentration: 10 uM) inactive: 0.619.

Consider `CC(=N)N1CCC(Oc2ccc(N(Cc3ccc4ccc(C(=N)N)cc4c3)S(=O)(=O)CC(=O)O)cc2)CC1`, for which the TEAD-luciferase reporter activity was inactive: -0.422 (compound concentration: 200 nM), inactive: 0.0159 (compound concentration: 2 uM) and inactive: -1.26 (compound concentration: 10 uM).

As for `CC(C)NC(=O)c1cnc2n1CCc1ccccc1C21CCNCC1`, the TEAD-luciferase reporter activity (compound concentration: 200 nM) was inactive: -0.546, the TEAD-luciferase reporter activity (compound concentration: 2 uM) is inactive: 3.59 and the TEAD-luciferase reporter activity (compound concentration: 10 uM) is inactive: -0.318.

Take `Cc1c(CN(C)C(=O)/C=C/C2=CNC3=NC(=O)CCC3=C2)oc2ccccc12`: the TEAD-luciferase reporter activity is inactive: -0.706 (compound concentration: 200 nM), inactive: -2.04 (compound concentration: 2 uM) and inactive: -1.41 (compound concentration: 10 uM).

In the case of `CCC(CC)n1c(C)cc2c3c(N)nc(N)nc3ccc21`, the TEAD-luciferase reporter activity was inactive: -1.57 (compound concentration: 200 nM), inactive: -1.81 (compound concentration: 2 uM) and inactive: 2.68 (compound concentration: 10 uM).

Regarding `S=[Se]=S`, the TEAD-luciferase reporter activity (compound concentration: 200 nM) is inactive: -0.171 and the TEAD-luciferase reporter activity (compound concentration: 10 uM) is inactive: -1.58.

For the molecule `CC(C)[C@@]1(C)SC(NC2C[C@H]3CC[C@@H]2C3)=NC1=O` (some centres undefined), the TEAD-luciferase reporter activity is, setting by setting: (compound concentration: 200 nM) inactive: -0.965; (compound concentration: 2 uM) inactive: 0.29; (compound concentration: 10 uM) inactive: -0.601.

Regarding `CO/N=C(\C(=O)NC1C(=O)N2C(C(=O)O)=CCSC12)c1csc(N)n1` (centres undefined) [ceftizoxime], the TEAD-luciferase reporter activity by setting is: (compound concentration: 200 nM) inactive: 0.821; (compound concentration: 2 uM) inactive: -0.28; (compound concentration: 10 uM) inactive: 0.148.

As for `CO/N=C(\C(=O)NC1C(=O)N2C(C(=O)O)=CCSC12)c1csc(N)n1` (centres undefined) [Ceftizoxime sodium], the TEAD-luciferase reporter activity (compound concentration: 2 uM) was inactive: -1.41.

With `CCCNC(Cc1ccc(OCCc2nc(-c3ccccc3)oc2C)cc1)C(=O)O` (centres undefined), the TEAD-luciferase reporter activity is inactive: -1.3 (compound concentration: 200 nM), inactive: -0.0731 (compound concentration: 2 uM) and inactive: -0.281 (compound concentration: 10 uM).

`Cc1cc(SC2=C(O)CC(CCc3ccc(O)cc3)(C(C)C)OC2=O)c(C(C)(C)C)cc1N` (centres undefined): the TEAD-luciferase reporter activity was inactive: 2.06 (compound concentration: 200 nM), inactive: -0.265 (compound concentration: 2 uM) and inactive: 0.91 (compound concentration: 10 uM).

On to `CC(O)c1ccc(CCOc2ccc(CC3SC(=O)NC3=O)cc2)nc1` (centres undefined) [Hydroxypioglitazone], for which the TEAD-luciferase reporter activity (compound concentration: 200 nM) is inactive: -1.11, the TEAD-luciferase reporter activity (compound concentration: 2 uM) was inactive: -0.898 and the TEAD-luciferase reporter activity (compound concentration: 10 uM) was inactive: -0.115.

Consider `CC(C)c1ccc(NC(=O)Cn2cnc3c2c(=O)n(C)c(=O)n3C)cc1`, for which the TEAD-luciferase reporter activity (compound concentration: 200 nM) is inactive: 2.36, the TEAD-luciferase reporter activity (compound concentration: 2 uM) was inactive: -1.48 and the TEAD-luciferase reporter activity (compound concentration: 10 uM) is inactive: -0.427.

For the molecule `CC(C)=CCOc1cc(NC(=S)c2cccnc2)ccc1Cl`, the TEAD-luciferase reporter activity runs as follows: (compound concentration: 200 nM) inactive: 0.77; (compound concentration: 2 uM) inactive: -1.34; (compound concentration: 10 uM) inactive: -1.34.

Regarding `C=C(c1ccccc1Cl)C(O)(Cn1cncn1)c1ccc(Cl)cc1` (centres undefined), the TEAD-luciferase reporter activity by setting is: (compound concentration: 200 nM) inactive: 0.391; (compound concentration: 2 uM) inactive: 0.294; (compound concentration: 10 uM) inactive: -0.582.

Consider `CNC(=O)Nc1c(OCCN2CCCC2)c(OC)c2occc2c1OC` [Carocainide], for which the TEAD-luciferase reporter activity by setting is: (compound concentration: 200 nM) inactive: -0.344; (compound concentration: 10 uM) inactive: 0.972.

`CC[N+](C)(C)NCCC(=O)O` [metabolite of EDIHYP]: the TEAD-luciferase reporter activity is, setting by setting: (compound concentration: 200 nM) inactive: -0.502; (compound concentration: 2 uM) inactive: -0.955; (compound concentration: 10 uM) inactive: -1.65.

`O=C(O)c1cccnc1N1CCN(CCCC(c2ccc(F)cc2)c2ccc(F)cc2)CC1`: the TEAD-luciferase reporter activity reads like this: (compound concentration: 200 nM) inactive: 0.509; (compound concentration: 2 uM) inactive: -0.679; (compound concentration: 10 uM) inactive: -0.577.

As for `COc1ccccc1N1CCN(CC(C)N(C(=O)C2CCCCC2)c2ccccn2)CC1` (centres undefined), the TEAD-luciferase reporter activity was inactive: -0.755 (compound concentration: 200 nM), inactive: -0.857 (compound concentration: 2 uM) and inactive: -1.46 (compound concentration: 10 uM).

With `CC1(C)O[C@@H]2C[C@H]3[C@@H]4CCC5=CC(=O)C=C[C@]5(C)[C@@]4(F)[C@@H](O)C[C@]3(C)[C@]2(C(=O)CO)O1` [Triamcinolone acetonide], the TEAD-luciferase reporter activity (compound concentration: 200 nM) is inactive: -0.613 and the TEAD-luciferase reporter activity (compound concentration: 10 uM) is inactive: 0.298.

`CC1(C)O[C@@H]2C[C@H]3[C@@H]4CCC5=CC(=O)C=C[C@]5(C)[C@@]4(F)[C@@H](O)C[C@]3(C)[C@]2(C(=O)CO)O1` [triamcinolone acetonide]: under “compound concentration: 2 uM”, the TEAD-luciferase reporter activity is inactive: 0.854.
